Results published in patent US9993492B2, “Lysophospholipids and lysophospholipid analogues against honeybee brood diseases” (University of Graz, priority 2013, dated 2018).
The name of at least one read-out is uncertain.

Test system: Paenibacillus larvae
Experiment: Antimicrobial assay in BHI liquid medium, vegetative forms of Paenibacillus larvae (MIC)
Format: cell-based
Settings: vegetative forms of Pl
Method: For the evaluation of certain fatty acids and phospholipids, overnight cultures of vegetative forms of Pl were used (for results see Table 1.1).
As test organisms, several different strains of Paenibacillus larvae were used.
Overnight cultures of the vegetative forms of bacteria were prepared in BHI (brain heart infusion) liquid medium.
From these overnight cultures, an inoculum of 50 μl is added to 1.0 ml of BHI liquid medium to perform the bacterial test in liquid medium. The compound 1-O-oleoyl-sn-glycero-3-phosphocholine (oleoyl-LPC) together with a positive control was then added at concentrations of 2, 5 and 10 ppm and the test tubes were incubated for 24 h at 34.5° C. Then, the extinction of the solution was measured photometrically.

SMILES	MIC (ppm)
CCCCCCCC/C=C\CCCCCCCC(=O)OC[C@@H](O)COP(=O)([O-])OCC[N+](C)(C)C [1-O-oleoyl-sn-glycero-3-phosphocholine]	2 ppm
CCCCCCCCCCCCCCCCOP(=O)([O-])OCC[N+](C)(C)C [miltefosine, hexadecylphosphocholine]	3 ppm
